About 3,700 (7%) of roughly 53,000 sequences were called active.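 Rule for the calls: active = gene knockdowns whose robust z-score for IL-1 alpha signal is at least 2 or at most -2, so actives lie on both sides; inactive = the rest.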 The list shows a part of the results.
Experiment: Components of the Cytosolic LPS Sensing Pathway: Gene Identification via Genome-wide siRNA Screen;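 note: robust z of the log signal after scaling to non-targeting control siRNA wells of the plate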
Settings: RAW264.7 macrophages, IL-1a HTRF, actives lie on both sides, screened at 100 nM (by protocol), cells primed 5 h with Pam3CSK4 first
Summary of the method: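 Read-out: IL-1a HTRF on supernatant, divided by plate negative-control median ×100, log-transformed and converted to robust z-score. Cells were RAW264.7 given 100 nM siRNA, Pam3CSK4-primed 5 hours, then LipidA-transfected 24 hour.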

Q: With GCAAGAGGAGGACGAAAAGTT against Ssna1 as the sequence, how does the z-score read?
A: Its z-score is inactive: -0.0483.

Q: For GGUUUAAAUGCAGUUCACATT against Arl9, which z-score is on record?
A: The z-score was inactive: 0.587.

Q: With GGGUCUGGAGAAUCUUCAGTT against Tgfb1i1 as the sequence, how does the z-score read?
A: The z-score was inactive: 0.923.

Q: For GGAAAAGUGAUAGUGGCUCTT against Ccnl2, which z-score is on record?
A: The z-score was inactive: -1.48.

Q: With GCACUACUGAUGGGUUUCUTT against Nme2 as the sequence, how does the z-score read?
A: Its z-score is inactive: 1.7.

Q: With GGUCAGUCCCUAGAUUAUATT against Fcgbp as the sequence, how does the z-score read?
A: Its z-score is inactive: -0.816.

Q: Which z-score does the source give for GGAAGAUCCGCUUCAACGUTT against Mab21l4 here?
A: The z-score was inactive: 1.2.

Q: With GCCCUGCUAGACAUUCUCUTT against Arrdc1 as the sequence, how does the z-score read?
A: Its z-score is inactive: -1.48.

Q: With CCGAUUCACUGUCCCUUUATT against Slc25a47 as the sequence, how does the z-score read?
A: The z-score was inactive: 0.59.

Q: For GGGCAUAUUCACUUUAAAATT against Dram1, which z-score is on record?
A: Its z-score is inactive: 0.209.

Q: With GGACCAGUGUCUUUUCAGATT against Hmmr as the sequence, how does the z-score read?
A: The z-score was inactive: 0.257.

Q: For GGUUGAUUUGUAGGGAGAGTT against Olfr1110, which z-score is on record?
A: Its z-score is inactive: 1.44.

Q: With AUGGUGCUGUUUUAUUUGUTT against Olfr671 as the sequence, how does the z-score read?
A: The z-score was inactive: -0.807.

Q: For GGCACCGAGAUUGUCAUUCTT against Olfr1246, which z-score is on record?
A: The z-score was inactive: -0.893.

Q: Which z-score does the source give for GGCAGUGCUGGCAACAAAUTT against Hsd3b5 here?
A: Its z-score is inactive: -0.884.

Q: With CCAAUCAGCAACUUCUUAUTT against Fbxl21 as the sequence, how does the z-score read?
A: Its z-score is inactive: -0.661.

Q: Which z-score does the source give for GGUGGUACAGGAUCUAUGUTT against Etfa here?
A: The z-score was inactive: -1.35.

Q: Which z-score does the source give for CCAUUGCAUAUUUAGUAGCTT against Sox11 here?
A: Its z-score is inactive: -0.765.

Q: For “GGUUUAAACCAGAAAAAUGTT against 4930524B15Rik”, which z-score is on record?
A: The z-score was inactive: 1.36.

Q: For GGCACAAAAGAAGAUCCUGTT against Tnfaip8, which z-score is on record?
A: The z-score was inactive: -1.53.

Q: Which z-score does the source give for GGAUCCUGCUAAGACCAUCTT against Sstr3 here?
A: Its z-score is inactive: 0.602.

Q: With GGAAGAGAAGCAAAUCCAATT against Spats2l as the sequence, how does the z-score read?
A: Its z-score is inactive: -1.09.

Q: With GGUUAUAUGCAGAGGAACUTT against Arid1a as the sequence, how does the z-score read?
A: Its z-score is inactive: -0.436.

Q: For GAACCAUCCGAGUAUGGCUTT against Wdfy1, which z-score is on record?
A: Its z-score is inactive: 0.847.

Q: For GGAAGUCUAGGUAAAAAAGTT against Samsn1, which z-score is on record?
A: Its z-score is inactive: -0.994.

Q: Which z-score does the source give for GGUUUACACCCUCAGAUCATT against Cct7 here?
A: The z-score was inactive: -0.985.

Q: For GGCAUGACUUCCACAUGAATT against Pdcd1, which z-score is on record?
A: Its z-score is inactive: 0.672.

Q: With GGUCAAGUUAAGGUAUUUCTT against Pkhd1 as the sequence, how does the z-score read?
A: The z-score was inactive: -0.0863.

Q: Which z-score does the source give for GGAAAAAUUGACCAAAGGATT against Gpalpp1 here?
A: The z-score was inactive: 1.25.

Q: For CCCGUUAUCUUCCCAACUGTT against Krtap31-1, which z-score is on record?
A: Its z-score is inactive: -0.226.

Q: For GGUCAUUGAAAACUGUGCGTT against Sardh, which z-score is on record?
A: Its z-score is inactive: -1.04.

Q: With GGUGAUUUGAACCUUUUGATT against Rab3d as the sequence, how does the z-score read?
A: Its z-score is inactive: -0.63.

Q: With GGACGUAGAAGUUUGGGAGTT against Nupl2 as the sequence, how does the z-score read?
A: The z-score was inactive: 1.39.

Q: With CCGCUCACUUCUUGAAUAUTT against Rnf125 as the sequence, how does the z-score read?
A: Its z-score is inactive: 0.388.

Q: With GCCAUUAAUGUACCAGGUUTT against Olfr894 as the sequence, how does the z-score read?
A: The z-score was inactive: -0.202.

Q: Which z-score does the source give for GGAACAAUCAAACUGGCUGTT against Cdk1 here?
A: Its z-score is inactive: -1.39.

Q: For GCCCUGUACAGUCAGUACATT against Kifbp, which z-score is on record?
A: The z-score was inactive: 1.43.

Q: With CCUGAUGCAACACAGGUCCTT against Zbtb26 as the sequence, how does the z-score read?
A: The z-score was inactive: 0.352.

Q: With GGGUGGUAACAACAUUAAATT against Bicc1 as the sequence, how does the z-score read?
A: Its z-score is inactive: -0.649.

Q: For GGGUAACAGUGCCUUUACUTT against Med12, which z-score is on record?
A: The z-score was inactive: 0.47.

Q: With GGGCAUUUAAAAUAAGGCATT against Nfib as the sequence, how does the z-score read?
A: The z-score was inactive: 0.677.

Q: For GGCCAAUCUCACCUGGACATT against Man2b1, which z-score is on record?
A: Its z-score is inactive: -0.421.

Q: For CCACACCAAGGACUUAUGGTT against Cd248, which z-score is on record?
A: The z-score was inactive: -0.584.

Q: Which z-score does the source give for GCUACGCUUCCUUAUUUGCTT against Tubgcp3 here?
A: The z-score was inactive: 0.525.

Q: Which z-score does the source give for GGAUGAGAAACUUCAGCUGTT against Dnajc22 here?
A: Its z-score is inactive: -0.861.

Q: With CGAACCAUAGCUAGCUCCATT against Klhdc8b as the sequence, how does the z-score read?
A: The z-score was inactive: -0.869.

Q: Which z-score does the source give for GCACAUUGGGAUAGCUGCATT against Trim65 here?
A: Its z-score is inactive: 1.48.

Q: Which z-score does the source give for GCCAUCCUUCCAUUUAAGATT against Wdyhv1 here?
A: The z-score was inactive: -0.478.

Q: For GGGAACUGUUCCAUCUUGCTT against Olfr606, which z-score is on record?
A: Its z-score is inactive: 0.979.

Q: For CCCUUAGUUUGACACACUUTT against Tal2, which z-score is on record?
A: The z-score was inactive: -0.301.

Q: With GGAGGAAUUUGAGAAGAAUTT against Lasp1 as the sequence, how does the z-score read?
A: Its z-score is inactive: 0.402.

Q: Which z-score does the source give for GGCUUGAUCAUGACUUAAATT against Armc8 here?
A: Its z-score is inactive: 0.638.

Q: Which z-score does the source give for GGGAAUUCCUUUAUUGAUCTT against Dhrs9 here?
A: Its z-score is inactive: -1.9.

Q: Which z-score does the source give for GAGAGAGAAUACCACUGUGTT against Gm5431 here?
A: The z-score was inactive: -0.244.

Q: Which z-score does the source give for GCUUUGGUAGAUCCUAAUATT against Ms4a7 here?
A: Its z-score is inactive: 0.816.

Q: Which z-score does the source give for GGCAAUGUCAGAGCUAAUCTT against Mettl25 here?
A: The z-score was inactive: 0.596.

Q: With GGAACCAAUAAAUCUGUGCTT against Rfxank as the sequence, how does the z-score read?
A: The z-score was inactive: 1.31.

Q: Which z-score does the source give for CCAAAUACCAUUUCCUACATT against Olfr495 here?
A: The z-score was inactive: 1.21.

Q: For GCAUUCAUUUGAGCUCGGUTT against Emc10, which z-score is on record?
A: Its z-score is inactive: -0.00572.

Q: For GGUUUGAUUAUACCUAUCATT against Tenm2, which z-score is on record?
A: Its z-score is inactive: -0.337.

Q: With GGAAGUCCGUUUUUAAGAATT against Zfp14 as the sequence, how does the z-score read?
A: Its z-score is inactive: -0.276.

Q: For GGGUUAUAACUCCUAUUUCTT against Apex2, which z-score is on record?
A: The z-score was inactive: -0.973.

Q: For CCUGUUACCCUAUAUUUUGTT against Vmn1r82, which z-score is on record?
A: Its z-score is inactive: -1.02.

Q: With GGAUCGAAAUAGCUCAUGCTT against Hoxa5 as the sequence, how does the z-score read?
A: The z-score was inactive: 0.64.

Q: For GCUAUAAAAUCUGCACAAGTT against Amy2a5, which z-score is on record?
A: Its z-score is inactive: 0.378.

Q: Which z-score does the source give for GGUGACCAAACUUAUCUACTT against Ercc2 here?
A: Its z-score is inactive: -1.15.

Q: For GGAGAAAUUGCCUUUGAUCTT against Pdik1l, which z-score is on record?
A: The z-score was inactive: 0.416.

Q: With CGCAAAGACUUAUAUUGAGTT against Nsrp1 as the sequence, how does the z-score read?
A: Its z-score is inactive: -0.511.

Source: PubChem BioAssay AID1508600 (Functional Genomics Laboratory (NCATS/FGL), 2020)
